Source: PubChem BioAssay AID493246 (Drosophila RNAi Screening Center, 2011)

- Screen: 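Genes fly cells need to grow and stay alive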 (primary screen)
- Cell system: Drosophila Kc and S2R+ cells
- Reagent: long dsRNA against Drosophila genes
- Measured: 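Raw, unnormalised count of remaining cells in each well; per-plate z-scores of cell number underlie the calls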
- Scale: Kc cell number and S2R+ cell number: higher = more cells remaining
- Call rule: 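Counted as a hit if cell number falls by a z-score of at least 3 within its plate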
The deposit covers about 21,000 reagents; below is a random part of those that have a named target and a result. Of all reagents, 429 (2%) got an active call. 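Values are raw and not normalised between plates; calls rest on per-plate z-scores that were not deposited.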 Reagent sequences are not shown. Not given: the amount of reagent, the time to read-out.

gene | DRSC id | Kc cell number, rep 1 | Kc cell number, rep 2 | S2R+ cell number, rep 1 | S2R+ cell number, rep 2 | Call
CG2120 | DRSC18207 | 1.46e6 | 1.45e6 | 9.85e5 | 1.09e6 | inactive
CG13488 | DRSC04133 | 1.71e6 | 1.86e6 | 1.45e6 | 4.51e5 | inactive
Isha | DRSC04456 | 1.36e6 | 1.41e6 | 9.91e5 | 1.12e6 | inactive
mRpL52 | DRSC06585 | 1.64e6 | 1.65e6 | 1.22e6 | 1.38e6 | inactive
CG14691 | DRSC14914 | 1.70e6 | 1.91e6 | 1.41e6 | 1.53e6 | inactive
Smyd3 | DRSC17744 | 1.67e6 | 1.72e6 | 1.03e6 | 1.18e6 | inactive
CG13359 | DRSC18539 | 1.48e6 | 1.43e6 | 1.00e6 | 1.08e6 | inactive
CG9646 | DRSC07342 | 1.57e6 | 1.53e6 | 1.12e6 | 1.29e6 | inactive
Ak3 | DRSC16075 | 1.60e6 | 1.71e6 | 1.30e6 | 1.36e6 | inactive
CG11125 | DRSC06042 | 1.49e6 | 1.53e6 | 1.23e6 | 1.42e6 | inactive
kek1 | DRSC03551 | 1.58e6 | 1.65e6 | 1.21e6 | 1.37e6 | inactive
Lpt | DRSC04291 | 2.06e6 | 2.19e6 | 1.48e6 | 1.49e6 | inactive
Lpt | DRSC04515 | 1.52e6 | 1.68e6 | 1.02e6 | 1.04e6 | inactive
CG3419 (retired record) | DRSC04368 | 1.52e6 | 1.60e6 | 1.22e6 | 1.35e6 | inactive
CG3419 (retired record) | DRSC04369 | 1.50e6 | 1.55e6 | 1.17e6 | 1.34e6 | inactive
Tep3 | DRSC03452 | 1.57e6 | 1.77e6 | 1.31e6 | 1.40e6 | inactive
GstE8 | DRSC06678 | 1.38e6 | 1.51e6 | 1.19e6 | 1.14e6 | inactive
CG31636 | DRSC02276 | 1.57e6 | 1.38e6 | 1.16e6 | 1.22e6 | inactive
CG12075 | DRSC17801 | 5.83e5 | – | 7.67e5 | – | inactive
Orc5 | DRSC03390 | 1.59e6 | 1.63e6 | 1.21e6 | 1.31e6 | inactive
Grl62a | DRSC07963 | 1.47e6 | 1.41e6 | 9.54e5 | 1.14e6 | inactive
CG16995 | DRSC00480 | 1.53e6 | 1.54e6 | 1.05e6 | 1.12e6 | inactive
CG31787 | DRSC01632 | 1.53e6 | 1.57e6 | 9.74e5 | 1.25e6 | inactive
wda | DRSC15579 | 1.52e6 | 1.58e6 | 1.11e6 | 1.21e6 | inactive

Targets above whose target name begins with G or g:
gene | DRSC id | Kc cell number, rep 1 | Kc cell number, rep 2 | S2R+ cell number, rep 1 | S2R+ cell number, rep 2 | Call
GstE8 | DRSC06678 | 1.38e6 | 1.51e6 | 1.19e6 | 1.14e6 | inactive
Grl62a | DRSC07963 | 1.47e6 | 1.41e6 | 9.54e5 | 1.14e6 | inactive
